The supplement of paper PMC4683952
This is one part of the list. No stated cut-off is given here; in the data, active = 2 or more and inactive = the rest. Most values lie within the scatter of the assay; repeated measurements hardly agree.

Test system: Lgr5 (MarsCy1-Lgr5-EGFP, U2OS)
Experiment: cell-surface Lgr5 expression (SCi1 fluorescence, background-subtracted) relative to WT DMSO (fold of DMSO control); higher = more Lgr5 at the plasma membrane
Conditions: U2OS MarsCy1-Lgr5-EGFP stable; treatment time: overnight; library: ActiProbe-5K (TimTec); 25 µM

cell-surface Lgr5 expression, inactive:
S=c1sc2c(Cl)ncnc2n1-c1ccccc1 0.357, CCCCCCCCCn1cc[n+](CCCCCCCCC)c1C.[Br-] 0.36, O=[N+]([O-])c1ccc2c(c1)Cc1cc([N+](=O)[O-])ccc1-2 1.09, O=C(CCCC(=O)N/N=C/c1cccs1)N/N=C\c1cccs1 1.08, COC(=O)C1=CN(CC2CCCO2)C=C(C(=O)OC)C1c1cccs1 (stereo unspecified) 1.01, NCCOc1ccc2oc3ccccc3c2c1 1.37, OC12CCCCC1C(c1ccc3c(c1)OCO3)NCC2 (stereo unspecified) 1.33, Cn1c(=O)[nH]c2cncc([N+](=O)[O-])c21 1.15, CS(=O)(=O)c1ccc(CN)cc1 1.38, CC1(C(F)(F)F)NC(=O)NC1=O (stereo unspecified) 0.986, Cc1ccc(/C=N/n2c(S)nnc2-c2ccco2)s1 1.05, CC1=C(C(=O)OC(C)C)C(c2sccc2C)NC(=O)N1 (stereo unspecified) 1.35, COc1ccc2nc(Sc3nccn3C)sc2c1 1.39, Nc1ccc(Nc2ccc(N)cc2S(=O)(=O)O)cc1 1.2, NCCCc1nc2cc(F)ccc2[nH]1 0.653, O/N=C\c1cc(Br)cs1 0.939, O=C1COc2cc(Cl)ccc2N1 1.11, CC(SCc1n[nH]c(=O)[nH]1)C(=O)Nc1nccs1 (stereo unspecified) 1.06, CCCSc1nc2[nH]c(=O)cc(O)c2s1 1.22, Nc1ncnc2[nH]c(SCc3nc4ccccc4[nH]3)nc12 1.09, Cc1sc2ccc(O)cc2[n+]1CCCS(=O)(=O)[O-] 1.07, CCC1(C)CCC(C)C(OC)O1 (stereo unspecified) 1.3, c1(/n(c2cc(OC)ccc2s1)CC)=C(\C#N)C#N 0.888, O=C1NN(c2ccc(Cl)c(Cl)c2)C(=O)/C1=C1\C(=O)Nc2ccc(Br)cc21 0.96, O=S(=O)(NCC1CC2CCC1C2)c1ccc2c(c1)OCCO2 (stereo unspecified) 1.22, Cn1c(C(c2ccccc2)c2ccccc2)n[nH]c1=S 1.16, C=CCN1C(=O)NOC(N)=C1C#N 0.826, CCCCCC1CC(C/C(C)=N/NC(N)=S)C(=O)O1 (stereo unspecified) 1.44, O=C(Cn1ccc([N+](=O)[O-])n1)n1cc(Cl)cn1 0.968, CN1c2ccccc2C(C)(C)C12C=Cc1cc(Br)cc(Br)c1O2 (stereo unspecified) 0.733, CCNc1nc(C#N)nc(N2CCOCC2)n1 1.02, O=[N+]([O-])c1c(-c2cnoc2)n[nH]c1-c1cnoc1 1.04, CC1(C)O[C@@H]2[C@H](O1)[C@@H]1C[C@@H]2NC1=O 1.34, C=CC(=C)CC(NC)c1ccccc1.Cl (stereo unspecified) 1.16, COc1cc(OC)c2c(C3NC(N)=Nc4nc5ccccc5n43)cn(C)c2c1 (stereo unspecified) 1.13, CCNC(=S)N1CCOCC1 1.43, Nc1nonc1-c1noc(-c2ccc(Br)cc2)n1 1.16, Cn1cccc1C1(C(F)(F)F)NCCNC1=O (stereo unspecified) 0.895, COc1ccc(N/N=C2/C(=N)NN=C2N)cc1 0.762, COc1nc(Nc2ccc(OC(F)(F)F)cc2)nc(NC2CC2)n1 1.29, OC(CSCc1ccc(Br)cc1)C(O)CSCc1ccc(Br)cc1 (stereo unspecified) 0.965, OCCC#CCN1CCCCC1 1.38, CN1CCN(CCCCN)CC1 1.15, CCCc1n[nH]c2c1C1(CCC3(CC1)OCCO3)C(C#N)=C(N)O2 1.18, CC(C)NC(=O)NC(C)(C)COC12CC3CC(CC(C3)C1)C2 1.12, Cn1cccc1/C=N\NC(=O)c1cnccn1 1.09, CC1(C)Nc2ccccc2-c2nnnn21 1.23, CCCCc1sc(/C=C(\C#N)C(N)=S)cc1[N+](=O)[O-] 0.987, c1cnc(SCc2ccc3nsnc3c2)nc1 0.839, Nc1cc(-c2ccco2)[nH]n1 0.871, O=C1OC(c2ccc(Br)cc2)=N/C1=C\c1ccc(Br)o1 1.39, Cc1ccc(/C=C2\CCCC(C)(C)C2=O)o1 1.27, N#CC1=C(N)OC2=C(CNC/C2=C/c2cccs2)C1c1cccs1 (stereo unspecified) 1.24, O.O=C1Nc2ccc(S(=O)(=O)[O-])cc2C1=O.[Na+] 1.37, Cc1nn(CN2CCCCC2)c(=S)s1 1.02, Cc1sc(N)c(C#N)c1CCC#N 1.08, C#CCn1cc(/C=C2/S/C(=N\C)N(C)C2=O)c2ccccc21 1.9, COc1cc(/C=N\O)cc(OC)c1OC 0.917, Clc1cccc(/N=C\c2cc3ccccc3nc2Cl)c1Cl 1.55, CCOC(=O)N1CCC2(CC1)C(C#N)=C(C)Nc1oc(C)nc12 1.22, O=C(C[n+]1cccc2ccccc21)c1ccc(F)cc1.[Br-] 1.32, O=C(O)c1cnn2c(C(F)(F)F)cc(C3CC3)nc12 0.803, Cc1nn(C)cc1-c1ccno1 1.28, CN(C1CCCCC1)S(=O)(=O)c1cc(Cl)ccc1Cl 1.39, Cn1cnnc1SCC(=O)Nc1sc2c(c1C#N)CCC2 1.14, Cc1cc(C)nc(SCCS(=O)c2ccc(C(C)(C)C)cc2)n1 (stereo unspecified) 0.933, Cc1ccc(-c2cc(C3(O)CCC4COC3O4)on2)cc1 (stereo unspecified) 1.08, N/C(CSc1nc(SC/C(N)=N\O)ns1)=N\O 1.01, OCc1nc2cc(-c3ccc4[nH]c(CO)nc4c3)ccc2[nH]1 1.23, Sc1nnc2[nH]c3ccccc3c2n1 0.767, Cn1c(-c2ccco2)nn(CN2CCCCC2)c1=S 1.11
